In the supplement of paper PMC6411743:
± gives the standard deviation of the averaged measurements. The list shows a part of the results.

Molecular target: T1, DOHH (UniProt Q9BU89)
T1 sequence (whole entry): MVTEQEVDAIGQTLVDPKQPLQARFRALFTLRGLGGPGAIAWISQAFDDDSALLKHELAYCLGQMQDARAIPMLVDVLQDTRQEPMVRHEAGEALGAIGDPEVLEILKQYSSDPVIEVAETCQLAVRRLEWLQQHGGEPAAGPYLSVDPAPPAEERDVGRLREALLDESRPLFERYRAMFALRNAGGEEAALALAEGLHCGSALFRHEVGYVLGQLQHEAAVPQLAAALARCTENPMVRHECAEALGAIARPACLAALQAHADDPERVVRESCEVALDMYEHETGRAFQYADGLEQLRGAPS
Assay: NP40-soluble protein abundance relative to vehicle (solubility fold change) (ratio); higher = more soluble protein in presence of GTP
Description: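 Solubility proteome profiling in Jurkat crude lysate. Lysate was treated with Mg-GTP (0.1-10 mM) for 10 min at room temperature and 3 min at 37 °C, then solubilised with 0.8% NP40 and benzonase, followed by ultracentrifugation. Proteins were quantified by TMT10 LC-MS/MS; the value is the NP40-soluble abundance relative to the NP40-processed vehicle, from 3 independent experiments.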

Nc1nc2c(ncn2[C@@H]2O[C@H](COP(=O)(O)OP(=O)(O)OP(=O)(O)O)[C@@H](O)[C@H]2O)c(=O)[nH]1 [guanosine triphosphate]
NP40-soluble protein abundance (concentration: 0.1mM): 0.975 ± 0.066
NP40-soluble protein abundance (concentration: 0.5mM): 0.905 ± 0.03
NP40-soluble protein abundance (concentration: 1mM): 1.03 ± 0.062
NP40-soluble protein abundance (concentration: 2mM): 1.01 ± 0.033
NP40-soluble protein abundance (concentration: 4mM): 1.01 ± 0.023
NP40-soluble protein abundance (concentration: 6mM): 1.01 ± 0.014
NP40-soluble protein abundance (concentration: 8mM): 0.959 ± 0.063
NP40-soluble protein abundance (concentration: 10mM): 0.973 ± 0.066
